From PubChem BioAssay AID588590 (National Center for Advancing Translational Sciences (NCATS), 2011)
Values joined by “and” are separate entries in the source; they are usually repeats but may differ in a detail not shown here. Equal values may be shown once. Screen size: about 390,000 compounds; about 4,000 (1%) were called active. Inconclusive results, whose numbers are uncertain, are shown with a selection of clear calls. Calls follow the shape of the dose curve; as a rule, active = well fitted inhibition curve with a large enough effect; inconclusive = small, poorly fitted or top-dose-only effect, or another doubt; inactive = no such curve, though single readings can be large or run the other way. Potencies of inconclusive entries are doubtful fits and often do not repeat.

Protein sequences, listed by entry. Tags and fused reporters are not part of them. Lines headed by an entry give the natural chain unless they say otherwise; changes in a name come on top.
UniProt Q9UNA4: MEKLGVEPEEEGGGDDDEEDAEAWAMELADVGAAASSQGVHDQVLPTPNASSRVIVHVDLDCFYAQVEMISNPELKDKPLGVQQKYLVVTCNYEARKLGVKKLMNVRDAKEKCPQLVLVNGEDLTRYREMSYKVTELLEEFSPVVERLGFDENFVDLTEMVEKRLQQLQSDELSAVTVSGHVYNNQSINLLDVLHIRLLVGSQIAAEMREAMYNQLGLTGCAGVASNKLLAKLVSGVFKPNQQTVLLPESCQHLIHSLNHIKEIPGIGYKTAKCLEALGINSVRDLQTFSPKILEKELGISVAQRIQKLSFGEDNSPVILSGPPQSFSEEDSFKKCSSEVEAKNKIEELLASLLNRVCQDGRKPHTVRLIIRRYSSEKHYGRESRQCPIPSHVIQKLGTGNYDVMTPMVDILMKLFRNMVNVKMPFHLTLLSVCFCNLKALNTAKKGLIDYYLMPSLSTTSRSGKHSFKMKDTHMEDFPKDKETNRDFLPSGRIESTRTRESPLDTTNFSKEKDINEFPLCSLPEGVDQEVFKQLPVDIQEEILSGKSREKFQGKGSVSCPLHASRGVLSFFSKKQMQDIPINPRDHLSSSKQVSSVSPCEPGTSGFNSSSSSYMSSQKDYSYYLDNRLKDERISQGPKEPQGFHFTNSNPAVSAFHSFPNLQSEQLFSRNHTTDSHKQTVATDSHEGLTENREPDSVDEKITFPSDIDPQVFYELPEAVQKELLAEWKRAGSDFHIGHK

What follows are compounds tested against DNA polymerase iota (Homo sapiens) (UniProt Q9UNA4) (assay: qHTS for Inhibitors of Polymerase Iota). Details: Pol iota fluorescent replication assay, 10 min; series mostly up to 115 µM; activity, negative = inhibition: at the top concentration.
How it was run: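 Pol iota at 10 nM preincubated 15 min with compounds at room temperature; reaction started with fluorescent substrate, 50 nM final. Fluorescence read kinetically at 0 and 10 min; buffer-only wells as negative control.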
Potency is read from the fitted curve at half-maximal effect.

Structure (SMILES)	Potency	activity, negative = inhibition
C=CCn1cc(C=C2C(=O)NC(=O)NC2=O)c2ccccc21	inconclusive: 12.6 µM [inhibitor, partial curve, poor fit]	
COc1ccc(C2=NCC(=O)N(CC(=O)NCc3ccco3)c3sc4c(c32)CCCC4)cc1	inconclusive: 3.98 µM [inhibitor, full curve, poor fit]	
CC(C)c1cccc(C(C)C)c1O	inconclusive: 0.708 µM [inhibitor, partial curve, poor fit]	
CCOc1ccc(C(NC(=O)c2cc(OC)c(OC)c(OC)c2)c2cc(Cl)c3cccnc3c2O)cc1 (stereo not given)		inactive: 18.7%
Cn1c(O)c(/C=N/NC(=O)c2ccncc2)c(=O)n(C)c1=S	inconclusive: 11.2 µM [inhibitor, partial curve, poor fit]	
CCOC(=O)C1CCN(/C=C2/C(=O)NC(=O)N(c3ccc(OCC)cc3)C2=O)CC1		inactive: 33%
Cc1cccc(N2C(=O)NC(=O)/C(=C/c3cc4c(cc3[N+](=O)[O-])OCO4)C2=O)c1	inconclusive: 10 µM [inhibitor, partial curve, poor fit]	
Cc1ccc(NC(=O)COC(=O)/C=C/c2ccco2)cc1S(=O)(=O)N(C)C	inconclusive: 39.8 µM [inhibitor, full curve, poor fit]	
CC1=NN(c2ccccc2)C(=O)C1/C=C1/C(=O)NC(=O)N(c2cc(C)cc(C)c2)C1=O (stereo not given)	inconclusive: 3.55 µM [inhibitor, full curve, poor fit]	
N#CCCn1cc(C(=O)Nc2ccccc2Br)c(-c2ccc([N+](=O)[O-])cc2)n1		inactive: 71.3%
Cc1nc(-c2ccc(-c3ccc(C(=O)N4CCc5cc6c(cc54)C4(CCN(C)CC4)CO6)cc3)c(C)c2)no1	inconclusive: 0.0447 µM [inhibitor, partial curve, poor fit]	
CC(C)(C)c1cc(OC(=O)Cc2ccccc2)ccc1O	inconclusive: 2.82 µM [inhibitor, partial curve, poor fit]	
Cc1ccc2c(c1)C1CN(C)CCC1N2C(=O)Cn1cnc2c1c(=O)n(C)c(=O)n2C (stereo not given)		inactive: -7.5%
CC(C)c1ccc(N=Cc2c(O)n(C3CC3)c(=S)[nH]c2=O)cc1	inconclusive: 28.2 µM [inhibitor, partial curve, poor fit]	
O=C1NC(=O)C2C1C1(Cl)C(Cl)=C(Cl)C2(Cl)C1(Cl)Cl (stereo not given)		inactive: -9.07%
Cc1ccccc1-n1c(O)c(/C=N/NC(=O)c2ccccc2O)c(=O)[nH]c1=S	inconclusive: 20 µM [inhibitor, partial curve]	
Clc1ccc(COC(Cn2ccnc2)c2ccc(Cl)cc2Cl)cc1 (stereo not given)		inactive: 8.85%
COc1ccc(C(=O)N/N=C/C23CC[C@@H](O)CC2(O)CC[C@@H]2[C@@H]3CCC3(C)C(C4=CC(=O)OC4)CCC23O)cc1 (stereo not given in full)	inconclusive: 44.7 µM [inhibitor, partial curve, poor fit]	
CCOC(=O)c1ccc(N=C(c2ccccc2)c2c(O)n(C)c(=O)n(C)c2=O)cc1	inconclusive: 25.1 µM [inhibitor, single point]	
O=c1[nH]c(=O)n(CC2CCCO2)c(O)c1/C=C1\C=Nc2ccccc21 (stereo not given)	inconclusive: 22.4 µM [inhibitor, partial curve]	

3 successive records already listed, quoted:
Structure (SMILES)	Potency	activity, negative = inhibition
CCOC(=O)C1CCN(/C=C2/C(=O)NC(=O)N(c3ccc(OCC)cc3)C2=O)CC1		inactive: 33%
Cc1cccc(N2C(=O)NC(=O)/C(=C/c3cc4c(cc3[N+](=O)[O-])OCO4)C2=O)c1	inconclusive: 10 µM [inhibitor, partial curve, poor fit]	
Cc1ccc(NC(=O)COC(=O)/C=C/c2ccco2)cc1S(=O)(=O)N(C)C	inconclusive: 39.8 µM [inhibitor, full curve, poor fit]	

The list goes on.

Structure (SMILES)	Potency	activity, negative = inhibition
Cc1cc(C)cc(OCCOc2cccc(C=C3C(=O)NC(=O)NC3=O)c2)c1	inconclusive: 22.4 µM [inhibitor, single point]	
O=C(CNC(=O)c1ccc(Br)cc1)NCC(=O)OCC(=O)c1ccc([N+](=O)[O-])cc1	inconclusive: 79.4 µM [inhibitor, single point]	
CN1C(=O)NC(=O)[C@]2(Cc3ccccc3N3CCN(c4ccccc4)CC32)C1=O (stereo not given in full)	inconclusive: 39.8 µM [inhibitor, partial curve, poor fit]	
Cc1cccc(OCC(=O)N2CCN(Cc3ccncc3)CC2)c1	inconclusive: 28.2 µM [inhibitor, partial curve, poor fit]	
Cc1ccc2cc(C=C(C#N)C#N)c(Cl)nc2c1	inconclusive: 22.4 µM [inhibitor, single point]	
CN1CCC2(CC1)NC(=O)C1=C(CN(C)CC1)N2		inactive: -2.47%
CC(Cc1ccccc1)[n+]1cc(/N=C(\N)[O-])on1 (stereo not given)	inconclusive: 3.16 µM [inhibitor, single point]	
Cc1ccc(/C=C2/C(=O)NC(=O)N(CCc3ccc(F)cc3)C2=O)o1	inconclusive: 14.1 µM [inhibitor, partial curve, poor fit]	
COC(=O)C1=C(c2cccc(OCc3ccccc3)c2)C[C@@H]2CC[C@H]1N2C(=O)NCc1ccc(N(C)C)cc1	inconclusive: 100 µM [inhibitor, single point]	
COc1ccc(C2CC(=O)Oc3c2c(=O)oc2ccccc32)c(OC)c1OC (stereo not given)	inconclusive: 89.1 µM [inhibitor, partial curve, poor fit]	
Cc1cc(OCC(=O)NCC(O)c2ccccc2)c2c3c(c(=O)oc2c1)CCCC3 (stereo not given)	inconclusive: 89.1 µM [inhibitor, single point]	
CCCCCn1c(NC(=O)c2ccco2)c(C(=O)OCC)c2nc3ccccc3nc21	active: 1.41 µM	
CN(C)c1nc(OCc2ccccc2)c2ncc(=O)[nH]c2n1	inconclusive: 89.1 µM [inhibitor, partial curve, poor fit]	
CNC(=O)Oc1ccc(-c2cn3cc(Cl)ccc3n2)cc1	inconclusive: 14.1 µM [inhibitor, partial curve, poor fit]	
Cc1csc(NC(=O)C(Cl)c2ccccc2)n1 (stereo not given) (tested in a mixture with another compound)	inconclusive: 17.8 µM [inhibitor, partial curve, poor fit]	
CSc1nc(N)c(N=Nc2ccc([As](=O)(O)O)cc2)c(=O)[nH]1	active: 8.91 µM	
CC1CCN(C(CC(=O)c2ccccc2)C(=O)c2ccccc2)CC1 (stereo not given)	inconclusive: 20 µM [inhibitor, partial curve]	
Cn1c(O)c(C(=Nc2ccccc2)SCc2ccc(Cl)cc2)c(=O)n(C)c1=O	inconclusive: 20 µM [inhibitor, partial curve, poor fit]	
Cc1c(C)c2ccc(OCC(=O)N3CCN(Cc4ccccc4)CC3)cc2oc1=O	inconclusive: 100 µM [inhibitor, partial curve, poor fit]	
N#CCn1c(CCl)nc2ccccc2c1=O	inconclusive: 79.4 µM [inhibitor, single point]	

Structure (SMILES)	Potency	activity, negative = inhibition
Cc1ccc(N2C(=O)NC(=O)/C(=C\c3cc(C)n(-c4sc5c(c4C#N)CCCC5)c3C)C2=O)cc1	inconclusive: 12.6 µM [inhibitor, full curve, poor fit]	
CCOC(=O)C1(CCOc2ccccc2)CCN(C(C)CSC)CC1 (stereo not given)		inactive: 14.5%
O=C1NC(=O)C(=Cc2ccc(Oc3ccc([N+](=O)[O-])cc3)cc2)C(=O)N1		inactive: 60.9%
O=c1cccc2n1CC1CC2CN(Cc2ccc3c(c2)OCO3)C1 (stereo not given)	inconclusive: 1 µM [inhibitor, full curve, poor fit]	
O=CC(Br)P(=O)(N1CCOCC1)N1CCOCC1 (stereo not given)	inconclusive: 28.2 µM [inhibitor, partial curve, poor fit]	
O=C(Cn1c(=O)oc2cc(S(=O)(=O)N3CCc4ccccc43)ccc21)NC1CCCC1	inconclusive: 1.41 µM [inhibitor, partial curve, poor fit]	
Cc1ccc2c(c1N)C(=O)c1ccccc1C2=O	inconclusive: 14.1 µM [inhibitor, full curve, poor fit]	
O=C(O)CC[N+](=O)[O-]	inconclusive: 89.1 µM [inhibitor, partial curve, poor fit]	
Cc1cc(OCC(=O)N2CCN(CCc3ccncc3)CC2)cc(C)c1Cl	inconclusive: 89.1 µM [inhibitor, single point]	
O=c1[nH]c(=O)n([C@H]2C[C@H](O)[C@@H](CO)O2)cc1/C=C/Br	inconclusive: 14.1 µM [inhibitor, partial curve]	
COc1ccc(-c2cc(=NCCCCCC(=O)O)c3cc(C)ccc3o2)cc1	inconclusive: 39.8 µM [inhibitor, single point] and inconclusive: 10 µM [inhibitor, full curve, poor fit]	
Cc1ccnc(-n2c(C)cc(/C=C3\C(=O)NC(=S)N(C)C3=O)c2C)c1	inconclusive: 31.6 µM [inhibitor, single point]	
CCN1C(=O)NC(=O)/C(=C\c2cn(CC(=O)N3CCCCC3C)c3ccccc23)C1=O (stereo not given)	inconclusive: 25.1 µM [inhibitor, partial curve, poor fit]	
NC(Cn1ccc(=O)[nH]c1=O)C(=O)O (stereo not given)		inactive: -3% [at 58.9 µM]
CCN1CCN(Cc2cc(Br)cc(Br)c2O)CC1	inconclusive: 39.8 µM [inhibitor, single point]	
O=C(O)C(F)(F)S(=O)(=O)O	inconclusive: 25.1 µM [inhibitor, partial curve, poor fit]	
O=c1c2ccccc2nc(/C=C/c2ccc([N+](=O)[O-])o2)n1-c1ccc(O)cc1	inconclusive: 8.91 µM [inhibitor, full curve, poor fit]	
COc1cc2c(cc1/C=C/[N+](=O)[O-])OCO2	inconclusive: 12.6 µM [inhibitor, partial curve, poor fit]	
COc1ccccc1N1C(=O)NC(=O)/C(=C/c2ccc3c(c2)Cc2ccccc2-3)C1=O	inconclusive: 28.2 µM [inhibitor, single point]	
O=C(O)CCC(=O)NCCC1=c2ccccc2=N/C1=C\c1c(O)n(Cc2ccc(F)cc2)c(=S)[nH]c1=O	inconclusive: 20 µM [inhibitor, partial curve, poor fit]	
